log2 fold change data for 37 targets are collected here from the supplement of paper PMC12819154, “High-throughput peptide-centric local stability assay extends protein–ligand identification to membrane proteins, tissues and bacteria” (Nature Structural & Molecular Biology, 2025).

Chains of the proteins cited; added tags and fusions are not shown. Lines headed by an entry give the natural chain unless they say otherwise; changes in a name come on top.
UniProt O60306: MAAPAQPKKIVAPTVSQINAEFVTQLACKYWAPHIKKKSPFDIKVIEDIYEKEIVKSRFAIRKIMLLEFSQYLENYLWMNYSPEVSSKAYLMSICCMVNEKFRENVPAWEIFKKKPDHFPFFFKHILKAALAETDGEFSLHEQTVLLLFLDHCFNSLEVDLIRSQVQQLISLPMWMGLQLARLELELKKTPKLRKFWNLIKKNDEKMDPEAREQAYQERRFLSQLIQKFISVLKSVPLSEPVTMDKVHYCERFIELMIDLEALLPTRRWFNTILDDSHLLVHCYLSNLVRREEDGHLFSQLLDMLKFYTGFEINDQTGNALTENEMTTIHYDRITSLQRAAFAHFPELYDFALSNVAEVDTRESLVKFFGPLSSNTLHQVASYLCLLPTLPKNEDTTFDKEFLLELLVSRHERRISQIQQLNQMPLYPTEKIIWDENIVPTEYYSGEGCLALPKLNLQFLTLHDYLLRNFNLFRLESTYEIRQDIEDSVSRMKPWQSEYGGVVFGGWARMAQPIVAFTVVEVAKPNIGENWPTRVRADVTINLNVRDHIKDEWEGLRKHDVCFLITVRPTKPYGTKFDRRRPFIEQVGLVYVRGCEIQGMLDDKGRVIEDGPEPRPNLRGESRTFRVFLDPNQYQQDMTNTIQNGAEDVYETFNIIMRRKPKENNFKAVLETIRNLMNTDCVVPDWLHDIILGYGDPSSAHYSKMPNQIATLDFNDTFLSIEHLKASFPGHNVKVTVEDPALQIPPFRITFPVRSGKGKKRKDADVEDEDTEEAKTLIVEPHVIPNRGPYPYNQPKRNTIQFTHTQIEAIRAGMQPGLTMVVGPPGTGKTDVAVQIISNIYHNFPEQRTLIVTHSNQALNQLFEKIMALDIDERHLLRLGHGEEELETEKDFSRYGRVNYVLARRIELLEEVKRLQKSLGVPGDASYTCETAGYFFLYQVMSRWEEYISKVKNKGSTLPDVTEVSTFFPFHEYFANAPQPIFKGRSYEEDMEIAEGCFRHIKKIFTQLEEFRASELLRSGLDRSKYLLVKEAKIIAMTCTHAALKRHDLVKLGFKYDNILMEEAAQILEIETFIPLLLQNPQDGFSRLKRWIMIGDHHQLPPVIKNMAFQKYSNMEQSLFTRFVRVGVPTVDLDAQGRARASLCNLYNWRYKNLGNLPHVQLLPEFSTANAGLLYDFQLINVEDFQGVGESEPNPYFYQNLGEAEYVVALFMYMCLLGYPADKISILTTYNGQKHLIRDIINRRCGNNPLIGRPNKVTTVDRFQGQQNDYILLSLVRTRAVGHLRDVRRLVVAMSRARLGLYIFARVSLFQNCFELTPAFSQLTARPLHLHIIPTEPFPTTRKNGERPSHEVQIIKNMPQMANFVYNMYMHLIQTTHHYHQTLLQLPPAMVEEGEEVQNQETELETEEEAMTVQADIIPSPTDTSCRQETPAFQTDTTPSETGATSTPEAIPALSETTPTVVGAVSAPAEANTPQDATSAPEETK
UniProt O60493, whole entry: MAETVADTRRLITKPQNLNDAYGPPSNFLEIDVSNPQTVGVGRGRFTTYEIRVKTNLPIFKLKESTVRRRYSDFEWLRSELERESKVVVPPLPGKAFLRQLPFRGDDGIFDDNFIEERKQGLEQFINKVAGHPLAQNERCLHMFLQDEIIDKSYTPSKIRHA
UniProt O60763: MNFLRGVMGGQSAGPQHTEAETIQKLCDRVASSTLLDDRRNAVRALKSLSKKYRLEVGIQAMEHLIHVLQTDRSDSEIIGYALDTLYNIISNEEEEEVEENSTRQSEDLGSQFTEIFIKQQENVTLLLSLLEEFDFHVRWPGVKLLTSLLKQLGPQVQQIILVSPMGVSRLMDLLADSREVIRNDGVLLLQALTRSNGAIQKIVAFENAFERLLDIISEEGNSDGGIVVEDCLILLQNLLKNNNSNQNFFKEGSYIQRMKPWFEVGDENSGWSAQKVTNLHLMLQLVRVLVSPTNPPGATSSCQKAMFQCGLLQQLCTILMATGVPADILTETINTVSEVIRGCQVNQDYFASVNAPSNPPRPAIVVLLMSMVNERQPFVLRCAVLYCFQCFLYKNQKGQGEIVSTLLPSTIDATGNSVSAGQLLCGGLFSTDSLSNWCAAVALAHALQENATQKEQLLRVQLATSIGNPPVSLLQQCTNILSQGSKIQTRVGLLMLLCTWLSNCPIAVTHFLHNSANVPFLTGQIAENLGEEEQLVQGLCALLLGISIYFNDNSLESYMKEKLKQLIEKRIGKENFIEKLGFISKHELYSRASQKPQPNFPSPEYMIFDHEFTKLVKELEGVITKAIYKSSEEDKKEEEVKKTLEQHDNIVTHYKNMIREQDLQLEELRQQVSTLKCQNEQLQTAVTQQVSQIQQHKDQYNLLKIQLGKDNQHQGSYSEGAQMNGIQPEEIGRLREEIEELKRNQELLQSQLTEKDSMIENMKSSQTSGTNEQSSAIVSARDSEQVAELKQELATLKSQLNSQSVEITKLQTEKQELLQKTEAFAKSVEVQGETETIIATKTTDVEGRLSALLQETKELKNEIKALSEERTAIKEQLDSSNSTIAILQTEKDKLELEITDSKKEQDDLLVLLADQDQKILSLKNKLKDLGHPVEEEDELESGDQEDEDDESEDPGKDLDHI
UniProt O60234, whole entry: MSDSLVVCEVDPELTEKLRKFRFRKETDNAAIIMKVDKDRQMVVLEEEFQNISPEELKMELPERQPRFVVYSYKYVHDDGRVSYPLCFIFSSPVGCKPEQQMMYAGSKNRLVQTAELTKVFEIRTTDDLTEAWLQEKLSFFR
UniProt O75367, whole entry: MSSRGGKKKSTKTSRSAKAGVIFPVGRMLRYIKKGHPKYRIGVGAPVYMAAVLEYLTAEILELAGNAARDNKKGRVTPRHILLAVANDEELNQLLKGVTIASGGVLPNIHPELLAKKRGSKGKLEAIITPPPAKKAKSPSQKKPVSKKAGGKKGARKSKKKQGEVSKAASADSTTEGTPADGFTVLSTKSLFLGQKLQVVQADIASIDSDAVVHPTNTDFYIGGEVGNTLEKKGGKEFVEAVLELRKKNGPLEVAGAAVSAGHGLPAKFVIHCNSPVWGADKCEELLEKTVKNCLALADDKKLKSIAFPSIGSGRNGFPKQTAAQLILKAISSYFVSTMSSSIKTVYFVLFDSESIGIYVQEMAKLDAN
UniProt O43432, whole entry: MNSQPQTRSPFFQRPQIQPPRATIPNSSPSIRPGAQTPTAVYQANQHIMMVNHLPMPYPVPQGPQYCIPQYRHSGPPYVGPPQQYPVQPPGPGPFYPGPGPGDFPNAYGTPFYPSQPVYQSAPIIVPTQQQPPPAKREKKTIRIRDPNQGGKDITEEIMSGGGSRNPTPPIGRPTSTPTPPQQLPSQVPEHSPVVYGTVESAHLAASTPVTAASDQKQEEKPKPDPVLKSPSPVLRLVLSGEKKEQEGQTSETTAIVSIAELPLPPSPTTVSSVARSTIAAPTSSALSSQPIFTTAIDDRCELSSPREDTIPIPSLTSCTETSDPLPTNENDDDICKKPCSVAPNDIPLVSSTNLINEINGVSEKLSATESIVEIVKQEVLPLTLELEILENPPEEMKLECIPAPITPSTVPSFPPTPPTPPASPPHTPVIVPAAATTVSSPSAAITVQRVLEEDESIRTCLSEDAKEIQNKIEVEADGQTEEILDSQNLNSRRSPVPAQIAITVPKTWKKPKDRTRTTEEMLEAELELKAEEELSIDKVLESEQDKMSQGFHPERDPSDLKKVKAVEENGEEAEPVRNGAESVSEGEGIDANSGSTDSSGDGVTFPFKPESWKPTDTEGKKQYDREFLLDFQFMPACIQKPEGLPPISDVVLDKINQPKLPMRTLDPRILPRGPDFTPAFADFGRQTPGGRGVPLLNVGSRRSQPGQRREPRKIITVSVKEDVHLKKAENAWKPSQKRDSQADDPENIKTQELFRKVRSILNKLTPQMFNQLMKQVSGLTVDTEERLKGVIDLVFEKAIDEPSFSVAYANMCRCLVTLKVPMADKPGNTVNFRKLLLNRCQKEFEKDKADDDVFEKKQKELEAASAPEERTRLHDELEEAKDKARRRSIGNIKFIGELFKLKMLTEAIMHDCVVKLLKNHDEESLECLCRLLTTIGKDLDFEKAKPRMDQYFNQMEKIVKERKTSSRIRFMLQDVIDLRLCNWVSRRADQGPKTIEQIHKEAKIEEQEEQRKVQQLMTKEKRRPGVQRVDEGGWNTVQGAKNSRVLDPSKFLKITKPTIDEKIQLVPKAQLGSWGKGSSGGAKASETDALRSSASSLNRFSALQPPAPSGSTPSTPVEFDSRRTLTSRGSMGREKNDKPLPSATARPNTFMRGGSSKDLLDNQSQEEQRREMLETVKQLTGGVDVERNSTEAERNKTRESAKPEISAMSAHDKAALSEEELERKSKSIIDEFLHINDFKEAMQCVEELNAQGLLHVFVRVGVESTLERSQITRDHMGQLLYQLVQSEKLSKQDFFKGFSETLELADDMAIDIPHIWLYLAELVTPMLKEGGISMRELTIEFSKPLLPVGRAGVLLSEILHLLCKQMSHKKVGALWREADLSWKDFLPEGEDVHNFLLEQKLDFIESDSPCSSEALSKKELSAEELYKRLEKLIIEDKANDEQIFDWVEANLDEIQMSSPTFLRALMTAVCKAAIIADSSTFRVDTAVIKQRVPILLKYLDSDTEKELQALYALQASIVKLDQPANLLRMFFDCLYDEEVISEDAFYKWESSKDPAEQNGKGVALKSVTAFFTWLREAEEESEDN
UniProt O75064: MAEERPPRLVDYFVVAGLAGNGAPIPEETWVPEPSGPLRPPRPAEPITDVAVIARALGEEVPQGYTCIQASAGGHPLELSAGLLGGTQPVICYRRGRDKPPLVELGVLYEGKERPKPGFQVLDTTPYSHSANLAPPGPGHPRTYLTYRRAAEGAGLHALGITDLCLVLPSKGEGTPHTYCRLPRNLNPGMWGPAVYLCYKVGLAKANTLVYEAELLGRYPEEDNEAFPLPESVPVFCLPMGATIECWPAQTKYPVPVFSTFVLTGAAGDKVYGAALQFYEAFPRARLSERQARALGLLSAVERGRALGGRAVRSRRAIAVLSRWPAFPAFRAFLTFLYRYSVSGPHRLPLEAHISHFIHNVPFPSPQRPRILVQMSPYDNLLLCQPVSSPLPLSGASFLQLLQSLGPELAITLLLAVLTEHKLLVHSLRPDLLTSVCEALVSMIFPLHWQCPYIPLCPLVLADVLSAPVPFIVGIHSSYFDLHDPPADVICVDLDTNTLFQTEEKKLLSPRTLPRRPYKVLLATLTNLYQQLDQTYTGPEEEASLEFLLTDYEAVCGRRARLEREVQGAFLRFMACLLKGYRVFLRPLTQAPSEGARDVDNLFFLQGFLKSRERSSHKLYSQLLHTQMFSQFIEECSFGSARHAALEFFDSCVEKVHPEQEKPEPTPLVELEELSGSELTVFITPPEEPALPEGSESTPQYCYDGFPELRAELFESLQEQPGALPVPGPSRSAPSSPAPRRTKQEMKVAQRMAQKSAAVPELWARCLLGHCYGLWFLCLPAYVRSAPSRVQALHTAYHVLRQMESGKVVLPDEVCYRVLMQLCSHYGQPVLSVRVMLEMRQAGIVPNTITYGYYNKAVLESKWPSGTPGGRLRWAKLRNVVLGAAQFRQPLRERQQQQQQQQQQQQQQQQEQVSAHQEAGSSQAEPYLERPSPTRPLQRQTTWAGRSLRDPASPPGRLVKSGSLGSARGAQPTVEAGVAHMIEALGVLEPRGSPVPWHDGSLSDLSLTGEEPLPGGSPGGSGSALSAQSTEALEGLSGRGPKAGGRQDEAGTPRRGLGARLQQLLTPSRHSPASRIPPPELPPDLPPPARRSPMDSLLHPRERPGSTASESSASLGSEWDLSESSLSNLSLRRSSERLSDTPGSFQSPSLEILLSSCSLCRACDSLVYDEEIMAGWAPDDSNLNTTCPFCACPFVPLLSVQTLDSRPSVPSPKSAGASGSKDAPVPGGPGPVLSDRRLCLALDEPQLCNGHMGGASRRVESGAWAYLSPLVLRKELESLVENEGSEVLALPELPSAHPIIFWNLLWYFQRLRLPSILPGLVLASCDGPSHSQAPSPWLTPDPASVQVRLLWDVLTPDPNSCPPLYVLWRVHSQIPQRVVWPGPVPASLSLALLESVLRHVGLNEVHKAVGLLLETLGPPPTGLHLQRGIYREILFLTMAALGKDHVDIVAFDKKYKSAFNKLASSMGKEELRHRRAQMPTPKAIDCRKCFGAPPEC
UniProt O43766: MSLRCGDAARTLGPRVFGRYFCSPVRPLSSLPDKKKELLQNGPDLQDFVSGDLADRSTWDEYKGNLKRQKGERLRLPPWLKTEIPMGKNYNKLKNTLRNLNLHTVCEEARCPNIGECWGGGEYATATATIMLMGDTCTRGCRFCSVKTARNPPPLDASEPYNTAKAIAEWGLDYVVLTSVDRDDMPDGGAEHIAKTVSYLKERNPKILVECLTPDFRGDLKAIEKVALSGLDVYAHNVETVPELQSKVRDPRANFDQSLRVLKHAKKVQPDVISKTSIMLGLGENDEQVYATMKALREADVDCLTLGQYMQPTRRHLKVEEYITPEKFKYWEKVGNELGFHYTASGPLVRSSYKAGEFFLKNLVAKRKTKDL

The other results are listed elsewhere or left out. Small differences around the control level are noise.

Compound in this assay: Cc1nc(Nc2ncc(C(=O)Nc3c(C)cccc3Cl)s2)cc(N2CCN(CCO)CC2)n1 [dasatinib]
As to the kind of experiment: log2 fold change of tryptic peptide abundance, ligand vs vehicle (limited proteolysis) (log2 ratio); higher = more trypsin-susceptible (destabilized). The settings on record: ligand concentration: 5 uM; sample: K562 cleared lysate.
In the case of “PHGDH (peptide sequence: KILQDGGLQVVEK, peptide start residue: 21) (UniProt O43175)”, the log2 fold change is -0.132. Next, “SEPTIN4 (peptide sequence: THMQDLK, peptide start residue: 292) (UniProt O43236)”: -0.195; “KIAA0513 (peptide sequence: KLCNDFLK, peptide start residue: 378) (UniProt O60268)”: 0.486; “SGTA (peptide sequence: LAYAIIQFLHDQLR, peptide start residue: 7) (UniProt O43765)”: -0.353. On to “EVI5 (peptide sequence: VLDIEKR, peptide start residue: 488) (UniProt O60447)”, for which the log2 fold change is -0.238. With “RAD21 (peptide sequence: RKGGEADNLDEFLK, peptide start residue: 405) (UniProt O60216)”, the log2 fold change amounted to 0.247. Regarding “UniProt O60341 (peptide sequence: IKPLPTKK, peptide start residue: 270)”, the log2 fold change is -0.139. Take “CCNT1 (peptide sequence: HSHSQLPVGTGNKRPGDPK, peptide start residue: 528) (UniProt O60563)”: the log2 fold change is -0.207. “UniProt O60282 (peptide sequence: ILQDSLGGNCR, peptide start residue: 285)”: the log2 fold change is -0.209. Next, “ERI3 (peptide sequence: NGLLDMNK, peptide start residue: 289) (UniProt O43414)”: -0.141; “MITF (peptide sequence: IQELEMQAR, peptide start residue: 392) (UniProt O75030)”: -0.319; “DHX15 (peptide sequence: ALVTGYFMQVAHLER, peptide start residue: 692) (UniProt O43143)”: 0.313. The value for “SNAP91 (peptide sequence: FIQYLASR, peptide start residue: 93) (UniProt O60641)” was -0.227; that for “AQR (peptide sequence: IELLEEVKR, peptide start residue: 906) (UniProt O60306)” was 0.216. Next, “SNX3 (peptide sequence: LKESTVRR, peptide start residue: 62) (UniProt O60493)”: -1.15; “TSC22D2 (peptide sequence: NSLLERENALLK, peptide start residue: 723) (UniProt O75157)”: 0.206. For “USO1 (peptide sequence: IVAFENAFER, peptide start residue: 203) (UniProt O60763)”, the log2 fold change was -0.205.

On to “GMFG (peptide sequence: YVHDDGR, peptide start residue: 75) (UniProt O60234)”, for which the log2 fold change stood at 0.186. For “UniProt O75312 (peptide sequence: MDQIIEGNMK, peptide start residue: 391)”, the log2 fold change was -0.253. On to “RNGTT (peptide sequence: EVSHEMDGLIFQPTGK, peptide start residue: 432) (UniProt O60942)”, for which the log2 fold change is 0.112. “HIP1R (peptide sequence: QREADLLAAQSLVR, peptide start residue: 565) (UniProt O75146)”: the log2 fold change is -0.179. Next, “PHLPP1 (peptide sequence: AIITEDGKVNGVTESTR, peptide start residue: 1324) (UniProt O60346)”: 0.333. Regarding “H2AFY (peptide sequence: KGHPKYR, peptide start residue: 34) (UniProt O75367)”, the log2 fold change was -0.364.

With “TBC1D12 (peptide sequence: LLPVPAPDPVGQDRK, peptide start residue: 17) (UniProt O60347)”, the log2 fold change was found to be 0.377. The value for “GIGYF1 (peptide sequence: SSPSLSDSYSHLSGRPIR, peptide start residue: 862) (UniProt O75420)” was -0.186; that for “UniProt O43432 (peptide sequence: RRPGVQR, peptide start residue: 1023)” was -0.694. As to “RNMT (peptide sequence: KEFEDDLVK, peptide start residue: 60) (UniProt O43148)”, the log2 fold change amounted to 0.385. For the target “DAPK3 (peptide sequence: EESDSLGQDLR, peptide start residue: 369) (UniProt O43293)”, the log2 fold change worked out at 0.322. Take “DENND4B (peptide sequence: RSPMDSLLHPR, peptide start residue: 1091) (UniProt O75064)”: the log2 fold change was -0.365. Next, “SPAG7 (peptide sequence: FQPMNKIER, peptide start residue: 70) (UniProt O75391)”: 0.414; “KIF1B (peptide sequence: VTGIYELSLCK, peptide start residue: 1438) (UniProt O60333)”: 0.608.

For “UniProt O43847 (peptide sequence: FFWGNAETLKHEPR, peptide start residue: 343)”, the log2 fold change is 1.67. With “ZNF217 (peptide sequence: TGCPPALLGK, peptide start residue: 754) (UniProt O75362)”, the log2 fold change was -0.364. Consider “EPB41L2 (peptide sequence: RIVITGDGDIDHDQALAQAIR, peptide start residue: 957) (UniProt O43491)”, for which the log2 fold change worked out at 0.403. As for “AKAP10 (peptide sequence: GSMFSQAMKK, peptide start residue: 612) (UniProt O43572)”, the log2 fold change was -0.844. The value for “LIAS (peptide sequence: KVQPDVISK, peptide start residue: 267) (UniProt O43766)” was -0.123; that for “RAD51C (peptide sequence: IDRNQALLVPALGESWGHAATIR, peptide start residue: 290) (UniProt O43502)” was 0.248.
